Here are results for 6 compounds from PubChem BioAssay AID182 (DTP/NCI, 2004).

In this assay the test system is BDF1 mice, P388/ADR leukemia ip, median survival T/C. The experiment in a line: NCI In Vivo Anticancer Drug Screen. Data for tumor model P388 Leukemia resistant to Adriamycin; NSC 123127, Developed at Scr 06 and 41 (intraperitoneal) in B6D2F1 (BDF1) mice. The settings on record: T/C endpoint: median survival time, higher T/C = longer survival. On the procedure: The antitumor activity of compounds was measured in mice bearing transplantable tumors. Survival or tumor size were measured and the results are expressed as the measurement made in the treated group (T) divided by the measurement made in the vehicle treated control group (C). The tumor model used in this assay is P388 Leukemia resistant to Adriamycin; NSC 123127, Developed at Scr 06 and 41 (intraperitoneal) in B6D2F1 (BDF1) mice

The mark [1] stands for this setting: dose: 2.88 mg/kg/injection, schedule: Q04DX003 (ip), vehicle: saline + alcohol.
The mark [2] stands for this setting: dose: 4.32 mg/kg/injection, schedule: Q04DX003 (ip), vehicle: saline + alcohol.
Setting [3] is: dose: 4.8 mg/kg/injection, schedule: Q04DX003 (ip), vehicle: saline + alcohol.
[4] abbreviates: dose: 7.2 mg/kg/injection, schedule: Q04DX003 (ip), vehicle: saline + alcohol.
The mark [5] stands for this setting: dose: 8.0 mg/kg/injection, schedule: Q04DX003 (ip), vehicle: saline + alcohol.
Setting [6] is: dose: 12.0 mg/kg/injection, schedule: Q04DX003 (ip), vehicle: saline + alcohol.

The list shows only some results of the screen, not a fair sample: it gathers some chemical classes. Other doses and runs of a compound may be missing. T/C gives the treated animals as a percentage of the vehicle group. Where survival is the endpoint, this PubChem deposit counts one and a half times the control or more as active, and values a quarter to a half above the control carry no call in these data; other NCI protocols may use other cut-offs. Schedules are NCI's codes, taken here to give the interval after Q, in days (D) or hours (H), and the number of doses after X. Some entries show no survivor count and are marked so; the dose need not have been tolerated. Some entries hold several experiments; the values are given in rising order.

As for `CC(=O)OC[C@]12C[C@H](OC(=O)CC(C)C)C(C)=C[C@H]1OC1[C@H](O)[C@@H](OC(C)=O)[C@@]2(C)[C@@]12CO2`, the T/C runs as follows: (dose: 1.08 mg/kg/injection, schedule: Q04DX003 (ip), vehicle: saline + alcohol) 122 [survivor count not shown] and 127 % of control [survivor count not shown]; (dose: 1.8 mg/kg/injection, schedule: Q04DX003 (ip), vehicle: saline + alcohol) 99 [survivor count not shown] and 124 % of control [survivor count not shown]; (dose: 2.16 mg/kg/injection, schedule: Q04DX003 (ip), vehicle: saline + alcohol) 111 % of control [survivor count not shown]; (dose: 3.0 mg/kg/injection, schedule: Q04DX003 (ip), vehicle: saline + alcohol) 99 [survivor count not shown] and 131 % of control [survivor count not shown]; (dose: 3.6 mg/kg/injection, schedule: Q04DX003 (ip), vehicle: saline + alcohol) 86 % of control [survivor count not shown]; (dose: 5.0 mg/kg/injection, schedule: Q04DX003 (ip), vehicle: saline + alcohol) 90 % of control [survivor count not shown]. For the same compound, the T/C reads like this: (dose: 540.0 micrograms/kg/injection, schedule: Q01DX009 (ip), vehicle: saline + alcohol) 132 % of control [survivor count not shown]; (dose: 648.0 micrograms/kg/injection, schedule: Q04DX003 (sc), vehicle: saline + alcohol) 109 % of control [survivor count not shown]; (dose: 900.0 micrograms/kg/injection, schedule: Q01DX009 (ip), vehicle: saline + alcohol) 88 % of control [survivor count not shown]; (dose: 1080.0 micrograms/kg/injection, schedule: Q04DX003 (sc), vehicle: saline + alcohol) 109 % of control [survivor count not shown].

Consider `CC1=C[C@H]2O[C@@H]3C[C@H]4OC(=O)/C=C\C=C\C(C(C)O)OCC(O)C(C)CC(=O)OC[C@@]2(C[C@@H]1O)[C@]4(C)[C@@]31CO1` (stereo partly drawn), for which the T/C by setting is: (dose: 540.0 micrograms/kg/injection, schedule: Q04DX003 (ip), vehicle: other) 126 % of control [survivor count not shown]; (dose: 900.0 micrograms/kg/injection, schedule: Q04DX003 (ip), vehicle: other) 153 % of control [survivor count not shown]; (dose: 1500.0 micrograms/kg/injection, schedule: Q04DX003 (ip), vehicle: other) 162 % of control [survivor count not shown].

As for `CC(=O)OCC12CCC(C)=CC1OC1C(O)C(OC(C)=O)C2(C)C12CO2` (stereo not drawn), the T/C runs as follows: (dose: 1.3 mg/kg/injection, schedule: Q04DX003 (sc), vehicle: saline + alcohol) 110 % of control [survivor count not shown]; (dose: 1.8 mg/kg/injection, schedule: Q01DX009 (ip), vehicle: saline + alcohol) 150 % of control [survivor count not shown]; (dose: 2.16 mg/kg/injection, schedule: Q04DX003 (sc), vehicle: saline + alcohol) 128 % of control [survivor count not shown]; under setting [1], 128 [survivor count not shown] and 129 % of control [survivor count not shown]; (dose: 3.0 mg/kg/injection, schedule: Q01DX009 (ip), vehicle: saline + alcohol) 122 % of control [survivor count not shown]; (dose: 3.24 mg/kg/injection, schedule: Q04DX003 (ip), vehicle: other) 144 % of control [survivor count not shown]. For the same compound, the T/C is, setting by setting: under setting [2], 103 [survivor count not shown] and 120 % of control [survivor count not shown]; under setting [3], 124 [survivor count not shown] and 129 % of control [survivor count not shown]; (dose: 5.0 mg/kg/injection, schedule: Q01DX009 (ip), vehicle: saline + alcohol) 108 % of control [survivor count not shown]; under setting [4], 130 % of control [survivor count not shown]; under setting [5], 130 [survivor count not shown] and 137 % of control [survivor count not shown]; under setting [6], 98 % of control [survivor count not shown]. For the same compound, where the note is “dose: 13.33 mg/kg/injection, schedule: Q04DX003 (ip), vehicle: saline + alcohol”, the T/C is 99 [survivor count not shown] and 124 % of control [survivor count not shown].

For the compound `CC1=C[C@H]2O[C@@H]3C[C@H]4OC(=O)/C=C\C=C\C(C(C)O)OCC[C@@H](C)[C@H](O)C(=O)OC[C@@]2(CC1)[C@]4(C)[C@]31CO1` (stereo partly drawn), the T/C was 109 % of control [survivor count not shown] (dose: 0.32 mg/kg/injection, schedule: Q04DX003 (ip), vehicle: saline + alcohol); 118 % of control [survivor count not shown] (dose: 0.54 mg/kg/injection, schedule: Q04DX003 (ip), vehicle: saline + alcohol); 99 % of control [survivor count not shown] (dose: 130.0 micrograms/kg/injection, schedule: Q04DX003 (ip), vehicle: saline + alcohol); 97 % of control [survivor count not shown] (dose: 216.0 micrograms/kg/injection, schedule: Q04DX003 (ip), vehicle: saline + alcohol); 104 % of control [survivor count not shown] (dose: 360.0 micrograms/kg/injection, schedule: Q04DX003 (ip), vehicle: saline + alcohol); 90 % of control [survivor count not shown] (dose: 600.0 micrograms/kg/injection, schedule: Q04DX003 (ip), vehicle: saline + alcohol).

Turning to `C[C@@H](O)[C@H]1/C=C/C=C\C(=O)O[C@@H]2C[C@H]3O[C@@H]4[C@@H]5OC5(C)CCC4(COC(=O)[C@H]4O[C@]4(C)[C@@H](O)CO1)[C@]2(C)[C@]31CO1` (stereo partly drawn), the T/C runs as follows: (dose: 1.94 mg/kg/injection, schedule: Q04DX003 (sc), vehicle: other) 99 % of control [survivor count not shown]; (dose: 2.59 mg/kg/injection, schedule: Q04DX003 (ip), vehicle: saline + alcohol) 144 % of control [survivor count not shown]; (dose: 3.24 mg/kg/injection, schedule: Q04DX003 (sc), vehicle: other) 116 % of control [survivor count not shown]; under setting [2], 149 % of control [survivor count not shown]; (dose: 5.4 mg/kg/injection, schedule: Q04DX003 (sc), vehicle: other) 111 % of control [survivor count not shown]; under setting [4], 158 % of control [survivor count not shown]. Besides, the T/C under setting [6] is 146 % of control [survivor count not shown].

Consider `CC(=O)O[C@@H]1[C@@H](O)[C@H]2O[C@@H]3C=C(C)C(=O)[C@@H](O)[C@]3(CO)[C@]1(C)[C@]21CO1`, for which the T/C (dose: 1.73 mg/kg/injection, schedule: Q04DX003 (ip), vehicle: saline + alcohol) is 100 % of control [survivor count not shown]; the T/C under setting [1] is 103 % of control [survivor count not shown]; the T/C under setting [3] is 118 % of control [survivor count not shown]; the T/C under setting [5] was 120 % of control [survivor count not shown].
